## Primary screen of a compound library

Data taken from ChEMBL document CHEMBL3988442, “University of Dundee, Small-Polar-MMV Screening Library” (2021).

Mtb growth Cornell: 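Whole-cell assay for inhibitors of Mycobacterium tuberculosis growth, labelled Cornell in the record; the read-out is not stated. The concentration is filed as 10 mM, unlikely as a test dose, so the dose is not known. The record gives no direction; compounds strong in two other growth screens of this library score well above the rest, so higher reads as stronger inhibition. Of about 53,000 compounds tested this way, about 900 (1.7%) reached 50% or more in at least one test.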
Mtb heat-shock: 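Assay on Mycobacterium tuberculosis, filed only as a heat shock assay from Cornell; the read-out is not stated. The concentration is filed as 10 mM, unlikely as a test dose, so the dose is not known. The record gives no direction; compounds that gave an IC50 in retests scored well above the rest, so higher reads as stronger inhibition. Of about 69,000 compounds tested this way, about 930 (1.4%) reached 50% or more in at least one test.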

Each number is a percent effect as filed.
How 0% and 100% were set is not recorded. Most values in the screen are low, and negative values occur.
The compounds are a random part of those screened.

{"compound": "CC(C)c1nc(CNC2CCN(C(=O)OC(C)(C)C)CC2)cs1", "Mtb heat-shock": -9.711}
{"compound": "CCCNC(=O)c1ccc2c(c1)C(=O)N(CC(C)C)C2=O", "Mtb heat-shock": -0.4609}
{"compound": "CN(CC(=O)N1CCCC1)C(=O)Cc1csc(-c2ncccn2)n1", "Mtb heat-shock": -18.03}
{"compound": "Cc1cnn(CC2CN(Cc3ccccn3)CCO2)c1", "stereo": "stereo unspecified", "Mtb growth Cornell": -9.265, "Mtb heat-shock": -5.862}
{"compound": "CC1(NC(=O)Cc2csc(NC(=O)c3ccccc3)n2)CCS(=O)(=O)C1", "stereo": "stereo unspecified", "Mtb growth Cornell": 11.23, "Mtb heat-shock": -1.282}
{"compound": "Cc1nccn1CC1CCN(C(=O)c2ccccc2)CC1", "Mtb growth Cornell": -12.84, "Mtb heat-shock": 11.35}
{"compound": "CNS(=O)(=O)c1ccc(CNC(=O)N(CC(C)C)C(C)C)cc1", "Mtb growth Cornell": 13.22, "Mtb heat-shock": 11.6}
{"compound": "CNC(=O)c1sc2ccccc2c1CC1CCCCN1Cc1ncc[nH]1", "stereo": "stereo unspecified", "Mtb growth Cornell": 3.193, "Mtb heat-shock": 10.74}
{"compound": "CCc1cnc(C)nc1NC(C)C(=O)Nc1cc(F)ccc1C", "stereo": "stereo unspecified", "Mtb growth Cornell": 15.39, "Mtb heat-shock": -10.85}
{"compound": "CN(C)CCN1CCOCC2(CCCN(C(=O)c3ccccc3)C2)C1.O=C(O)C(F)(F)F.O=C(O)C(F)(F)F", "stereo": "stereo unspecified", "Mtb growth Cornell": 9.881, "Mtb heat-shock": -10.51}
{"compound": "O=C(NCCCN1CCCCCC1=O)c1n[nH]c(=O)c2ccccc12", "Mtb heat-shock": -14.86}
{"compound": "O=C(CCCc1ccccn1)NCC(O)c1ccccc1Cl", "stereo": "stereo unspecified", "Mtb growth Cornell": -16.58, "Mtb heat-shock": -2.364}
{"compound": "O=C(O)C(F)(F)F.[H][C@@]12CNC(=O)[C@@H](C)[C@]1([H])CN(CCc1ccccc1)C2", "Mtb growth Cornell": 16.95, "Mtb heat-shock": -38.45}
{"compound": "CCn1cc(CN2CCC(CN3CCCCC3)CC2)cc1C#N", "Mtb growth Cornell": 19.9, "Mtb heat-shock": -41.77}
{"compound": "c1ccc(Oc2nccc3occc23)c(CN2CCCCC2)c1", "Mtb growth Cornell": 20.91, "Mtb heat-shock": -23.69}
{"compound": "CSCC(=O)N1CCc2c(cnc(C)c2-c2noc(-c3cscn3)n2)C1", "Mtb heat-shock": 21.44}
{"compound": "CC(C)c1nc2n(n1)CC(NCC(=O)N(C)Cc1cccs1)CC2", "stereo": "stereo unspecified", "Mtb growth Cornell": 0.2329, "Mtb heat-shock": 11.15}
{"compound": "CCc1cc(CN(C)Cc2nc(-c3sccc3C)oc2C)on1", "Mtb growth Cornell": 6.468, "Mtb heat-shock": -26.64}
{"compound": "Cc1noc(C2CCC3(CCN(C(=O)c4cnccn4)CC3)O2)n1", "stereo": "stereo unspecified", "Mtb heat-shock": -45.58}
{"compound": "CN1CCOCC2(CCCN(C(=O)Cc3ccncc3)C2)C1.O=C(O)C(F)(F)F", "stereo": "stereo unspecified", "Mtb growth Cornell": 14.35, "Mtb heat-shock": -28.6}
{"compound": "Cc1nnc(CN(C)CC2CCCN2c2cccnn2)o1", "stereo": "stereo unspecified", "Mtb growth Cornell": -56.39, "Mtb heat-shock": 4.792}
{"compound": "C=C(C)CN1CCOC(Cn2cncn2)C1", "stereo": "stereo unspecified", "Mtb growth Cornell": 0.4198, "Mtb heat-shock": -32.23}
{"compound": "Cc1c[nH]c(C2COCCN2C(=O)c2ccc(=O)[nH]n2)n1", "stereo": "stereo unspecified", "Mtb growth Cornell": 0.9699, "Mtb heat-shock": -2.374}
{"compound": "O=C1N(CCC2CCCCC2)CCCC1(O)CNCCc1ccccc1", "stereo": "stereo unspecified", "Mtb growth Cornell": 19.76, "Mtb heat-shock": -0.9832}
{"compound": "COCC(=O)N1CCN(c2ccc(C(=O)OC)cc2)CC1C", "stereo": "stereo unspecified", "Mtb growth Cornell": 9.992, "Mtb heat-shock": -20.29}
{"compound": "COc1ccc(C)cc1CCNS(=O)(=O)c1ccc2c(c1)CCC(=O)N2", "Mtb growth Cornell": 19.52, "Mtb heat-shock": -3.927}
{"compound": "CCn1cnnc1CNC(=O)c1cc(Cl)c(I)cc1OC", "Mtb growth Cornell": 8.468, "Mtb heat-shock": 5.163}
{"compound": "CCc1nc(C)ncc1C(=O)N1CCCC(n2nc(C)nc2C)C1", "stereo": "stereo unspecified", "Mtb growth Cornell": 1.813, "Mtb heat-shock": -1.679}
{"compound": "Cc1cc(C(C)NC(=O)N2CCC(n3cncn3)CC2)c(C)s1", "stereo": "stereo unspecified", "Mtb growth Cornell": 31.65, "Mtb heat-shock": 5.866}
{"compound": "O=C(O)C(F)(F)F.[H][C@]12CCC[C@@]1(COCc1cccc(C)n1)CN(S(=O)(=O)N(C)C)C2", "Mtb growth Cornell": 31.84, "Mtb heat-shock": -26.42}
{"compound": "c1cc2nccc(CC3CCCN(Cc4ncc[nH]4)CC3)c2cn1", "stereo": "stereo unspecified", "Mtb growth Cornell": 8.753, "Mtb heat-shock": 4.211}
{"compound": "CCc1nc(C2CCCN2CC(=O)Nc2nnc(C)s2)no1", "stereo": "stereo unspecified", "Mtb growth Cornell": -23.55, "Mtb heat-shock": -7.865}
{"compound": "Cn1c(Cn2ccnc2)nnc1C1CCN(C(=O)C2(C)CC2)CC1", "Mtb growth Cornell": -31.03, "Mtb heat-shock": 12.98}
{"compound": "CN(CC(=O)Nc1cccc(F)c1)Cc1nc(N)nc(N(C)C)n1", "Mtb growth Cornell": 30.17, "Mtb heat-shock": 9.35}
{"compound": "Cc1c(C(=O)N2CCCC(C(=O)c3nccn3C)C2)c[nH]c(=O)c1C#N", "stereo": "stereo unspecified", "Mtb heat-shock": 1.437}
{"compound": "O=C(c1cc(Cl)cc2cccnc12)N1CCN(CCO)CC1", "Mtb heat-shock": 13.24}
{"compound": "CCc1nnc2n1CCN(C(=O)C(C)Oc1cccc(C#N)c1)C2", "stereo": "stereo unspecified", "Mtb growth Cornell": -17.92, "Mtb heat-shock": 1.571}
{"compound": "O=C1CC2(CCN(C(=O)c3ccccn3)C2)Nc2ccccc2N1", "stereo": "stereo unspecified", "Mtb heat-shock": -20.34}
{"compound": "CC(C)CNC(=O)CNc1c(NCc2ccco2)c(=O)c1=O", "Mtb growth Cornell": 4.914, "Mtb heat-shock": -2.303}
{"compound": "COCCn1c(-c2cccc(OC)c2)cnc1NC(=O)NC1CCCC1", "Mtb growth Cornell": 39.71, "Mtb heat-shock": 19.27}
{"compound": "O=C(c1ccccc1)N1CCN(CC(O)c2ccc(F)cc2)CC1", "stereo": "stereo unspecified", "Mtb heat-shock": -7.646}
{"compound": "CCN(CCC(=O)OC)C(=O)c1cccc(Cn2nc(C)cc2C)c1", "Mtb growth Cornell": 3.709, "Mtb heat-shock": 0.09065}
{"compound": "CCc1cc(C(F)(F)F)c2c(C)nn(CC(=O)O)c2n1", "Mtb heat-shock": 4.015}
{"compound": "CN(CCc1nccs1)C(=O)C1(C#N)CCCCC1", "Mtb growth Cornell": 25.08, "Mtb heat-shock": -19.19}

The first 5 entries again:

With CC(C)c1nc(CNC2CCN(C(=O)OC(C)(C)C)CC2)cs1 the screen gave Mtb heat-shock: -9.711%.
With CCCNC(=O)c1ccc2c(c1)C(=O)N(CC(C)C)C2=O the screen gave Mtb heat-shock: -0.4609%.
With CN(CC(=O)N1CCCC1)C(=O)Cc1csc(-c2ncccn2)n1 the screen gave Mtb heat-shock: -18.03%.
With Cc1cnn(CC2CN(Cc3ccccn3)CCO2)c1 (stereo unspecified) the screen gave Mtb growth Cornell: -9.265%; Mtb heat-shock: -5.862%.
With CC1(NC(=O)Cc2csc(NC(=O)c3ccccc3)n2)CCS(=O)(=O)C1 (stereo unspecified) the screen gave Mtb growth Cornell: 11.23%; Mtb heat-shock: -1.282%.